Data source: PubChem BioAssay AID1224830 (NIAID, 2016)
Test: 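Regulators of TLR4 signalling towards TNF-alpha in macrophage-like cells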 (primary screen). Cells: human THP-1 monocytic leukaemia cells, TNF dual-luciferase reporter clone, PMA-differentiated to macrophage-like cells. Reagents: siRNA pool against human genes, 50 nM. Timing: LPS for 4 h, given about 3 days after siRNA transfection. Treatment: bacterial LPS (TLR4 ligand), 10 ng/ml. Measured: 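TNF firefly reporter luminescence divided by renilla, normalised to the plate median, then turned into a robust z-score for each replicate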. Reading the numbers: TNF reporter robust z-score: higher = stronger TNF reporter response to LPS. Call rule: 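Each well counts as active if its z-score is over 2.8 or under -1.5; controls are left without a call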.
The whole screen tested about 18,000 reagents; below is an unselected part. Of all reagents, about 2,900 (16%) got an active call. 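Calls are made per well; low scores hint the gene aids the LPS response, high scores that it dampens it.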 Repeated entries: four replicate wells of each siRNA pool.

gene	TNF reporter robust z-score	activity call
CLEC7A (GeneID 64581)	-0.55	inactive
CLEC7A (GeneID 64581)	0.2	inactive
CLEC7A (GeneID 64581)	-0.7	inactive
CLEC7A (GeneID 64581)	-0.86	inactive
SLC2A4 (GeneID 6517)	-0.27	inactive
SLC2A4 (GeneID 6517)	-0.46	inactive
SLC2A4 (GeneID 6517)	-0.63	inactive
RHEBL1 (GeneID 121268)	-0.64	inactive
RHEBL1 (GeneID 121268)	0.98	inactive
RHEBL1 (GeneID 121268)	-0.28	inactive
RHEBL1 (GeneID 121268)	-0.12	inactive
RUNX1 (GeneID 861)	-1.37	inactive
RUNX1 (GeneID 861)	-1.29	inactive
RUNX1 (GeneID 861)	-1.33	inactive
RUNX1 (GeneID 861)	-1.25	inactive
RPL13A (GeneID 23521)	0.84	inactive
RPL13A (GeneID 23521)	0.72	inactive
RPL13A (GeneID 23521)	1.32	inactive
RPL13A (GeneID 23521)	-1.3	inactive
CDH3 (GeneID 1001)	-0.72	inactive
CDH3 (GeneID 1001)	-0.48	inactive
CDH3 (GeneID 1001)	-0.1	inactive
CDH3 (GeneID 1001)	-0.39	inactive
TPMT (GeneID 7172)	-0.87	inactive
TPMT (GeneID 7172)	1.25	inactive
TPMT (GeneID 7172)	-0.94	inactive
TPMT (GeneID 7172)	-0.19	inactive
SPINK9 (GeneID 643394)	-0.06	inactive
SPINK9 (GeneID 643394)	0.56	inactive
SPINK9 (GeneID 643394)	-0.68	inactive
SPINK9 (GeneID 643394)	0.22	inactive
PYDC2 (GeneID 152138)	-0.86	inactive
PYDC2 (GeneID 152138)	1.12	inactive
PYDC2 (GeneID 152138)	0.48	inactive
PYDC2 (GeneID 152138)	1.19	inactive
CHP1 (GeneID 11261)	-0.12	inactive
CHP1 (GeneID 11261)	-0.57	inactive
CHP1 (GeneID 11261)	-0.35	inactive
CHP1 (GeneID 11261)	-0.21	inactive
ASTN2 (GeneID 23245)	-0.97	inactive
ASTN2 (GeneID 23245)	-0.84	inactive
ASTN2 (GeneID 23245)	-1.72	active
ASTN2 (GeneID 23245)	-0.02	inactive
BDP1 (GeneID 55814)	-0.52	inactive
BDP1 (GeneID 55814)	0.67	inactive
BDP1 (GeneID 55814)	-0.12	inactive
BDP1 (GeneID 55814)	0.11	inactive
FIZ1 (GeneID 84922)	-0.55	inactive
FIZ1 (GeneID 84922)	-0.19	inactive
FIZ1 (GeneID 84922)	-1.67	active
ZNF227 (GeneID 7770)	2.48	inactive
ZNF227 (GeneID 7770)	1.74	inactive
ZNF227 (GeneID 7770)	1.46	inactive
ZNF227 (GeneID 7770)	0.39	inactive
MOB1A (GeneID 55233)	0.4	inactive
MOB1A (GeneID 55233)	0.05	inactive
MOB1A (GeneID 55233)	0.47	inactive
MOB1A (GeneID 55233)	1.27	inactive
ATG4B (GeneID 23192)	0.28	inactive
ATG4B (GeneID 23192)	2.52	inactive
ATG4B (GeneID 23192)	0.41	inactive
ATG4B (GeneID 23192)	1.44	inactive
TRIM49C (GeneID 642612)	-0.38	inactive
TRIM49C (GeneID 642612)	-0.85	inactive
TRIM49C (GeneID 642612)	0.3	inactive
TRIM49C (GeneID 642612)	1.78	inactive
OXCT1 (GeneID 5019)	-0.21	inactive
OXCT1 (GeneID 5019)	-0.22	inactive
OXCT1 (GeneID 5019)	-0.86	inactive
OXCT1 (GeneID 5019)	-0.36	inactive
GALNT11 (GeneID 63917)	-0.25	inactive
GALNT11 (GeneID 63917)	0.55	inactive
GALNT11 (GeneID 63917)	0.18	inactive
GALNT11 (GeneID 63917)	0.81	inactive
PLEKHN1 (GeneID 84069)	-1.07	inactive
PLEKHN1 (GeneID 84069)	2.16	inactive
PLEKHN1 (GeneID 84069)	0.63	inactive
PLEKHN1 (GeneID 84069)	0.43	inactive
NRF1 (GeneID 4899)	0.6	inactive
NRF1 (GeneID 4899)	0.62	inactive
NRF1 (GeneID 4899)	0.41	inactive
NRF1 (GeneID 4899)	0.91	inactive
PCDHGA10 (GeneID 56106)	-0.76	inactive
PCDHGA10 (GeneID 56106)	-0.74	inactive
PCDHGA10 (GeneID 56106)	-0.24	inactive
ECE1 (GeneID 1889)	-0.7	inactive
ECE1 (GeneID 1889)	0.01	inactive
ECE1 (GeneID 1889)	-1.12	inactive
ECE1 (GeneID 1889)	0.74	inactive
NRBP1 (GeneID 29959)	-0.97	inactive
NRBP1 (GeneID 29959)	-0.29	inactive
NRBP1 (GeneID 29959)	0.03	inactive
NRBP1 (GeneID 29959)	0.59	inactive
LEPROT (GeneID 54741)	-0.06	inactive
LEPROT (GeneID 54741)	-0.66	inactive
LEPROT (GeneID 54741)	0.24	inactive
SLC2A7 (GeneID 155184)	0.58	inactive
SLC2A7 (GeneID 155184)	-0.21	inactive
SLC2A7 (GeneID 155184)	-0.59	inactive
SLC2A7 (GeneID 155184)	-0.91	inactive
CABP7 (GeneID 164633)	0.19	inactive
CABP7 (GeneID 164633)	-0.84	inactive
CABP7 (GeneID 164633)	-0.65	inactive
CABP7 (GeneID 164633)	0.99	inactive
KIF19 (GeneID 124602)	-0.46	inactive
KIF19 (GeneID 124602)	3.88	active
KIF19 (GeneID 124602)	4.16	active
KIF19 (GeneID 124602)	0.2	inactive
SPEN (GeneID 23013)	-1.07	inactive
SPEN (GeneID 23013)	-0.35	inactive
SPEN (GeneID 23013)	-0.36	inactive
SPEN (GeneID 23013)	-0.93	inactive
SYNPO2 (GeneID 171024)	-1.41	inactive
SYNPO2 (GeneID 171024)	-0.12	inactive
SYNPO2 (GeneID 171024)	0.63	inactive
SYNPO2 (GeneID 171024)	3.87	active
L3MBTL1 (GeneID 26013)	-0.59	inactive
L3MBTL1 (GeneID 26013)	-0.09	inactive
L3MBTL1 (GeneID 26013)	0.33	inactive
L3MBTL1 (GeneID 26013)	1.42	inactive
YIPF6 (GeneID 286451)	-0.42	inactive
YIPF6 (GeneID 286451)	-0.33	inactive
YIPF6 (GeneID 286451)	-1.13	inactive
YIPF6 (GeneID 286451)	-0.31	inactive
SERPINB4 (GeneID 6318)	0.73	inactive
SERPINB4 (GeneID 6318)	0.62	inactive
SERPINB4 (GeneID 6318)	0.69	inactive
SERPINB4 (GeneID 6318)	2.32	inactive
SLC35E1 (GeneID 79939)	0.15	inactive
SLC35E1 (GeneID 79939)	0.04	inactive
SLC35E1 (GeneID 79939)	0.01	inactive
SLC35E1 (GeneID 79939)	0.28	inactive
NDUFAF3 (GeneID 25915)	-0.23	inactive
NDUFAF3 (GeneID 25915)	0.29	inactive
NDUFAF3 (GeneID 25915)	-0.71	inactive
NDUFAF3 (GeneID 25915)	-0.02	inactive
BARD1 (GeneID 580)	-0.09	inactive
BARD1 (GeneID 580)	-0.81	inactive
BARD1 (GeneID 580)	-0.04	inactive
BARD1 (GeneID 580)	0.6	inactive
